{
  "source": "PubChem BioAssay AID1347075",
  "about": "(National Center for Advancing Translational Sciences (NCATS), 2019)",
  "note": "Screen size: about 400,000 compounds; about 5,500 (1.4%) were called active. Inconclusive means that the source gave no clear call. Such entries were picked first, then a sample of the others. Calls follow the shape of the dose curve; as a rule, active = well fitted cell-killing curve with a large enough effect; inconclusive = small, poorly fitted or top-dose-only effect, or effect the other way; inactive = flat fitted curve, though single readings scatter. Potencies of inconclusive entries are doubtful fits and often do not repeat. % is scaled to controls: 0 for no effect and ±100 for the full control effect; potency is read from the fitted curve at half-maximal effect.",
  "data": [
    {"assay": "qHTS assay for MDR1-selective chemotherapeutics: Primary screen using the parental adenocarcinoma cell KB-3-1; also: nearly all actives have a fitted effect of over 60% in size", "details": "KB-3-1 viability, CellTiter-Glo ATP luminescence, 72 h; activity change, negative = cytotoxic: at 46.1 µM (top of the series)", "outline": "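Using CellTiter-Glo luminescence, growth of non-resistant KB-3-1 adenocarcinoma cells is assessed 72 h after pin-tool compound addition at 37 °C. Normalized responses across the concentration series yield fitted curves.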", "values": [
      {"compound": "CCC1=NN2C(=N)/C(=C\\c3cccn3-c3ccc(Cl)cc3)C(=O)N=C2S1", "Potency": "inconclusive: 32.6 µM [rising, single point]"},
      {"compound": "CC(O)CN=c1cc(-c2ccccc2)oc2ccc(Cl)cc12", "note": "(stereo not given)", "Potency": "active: 20.6 µM"},
      {"compound": "Cc1cc(C)c(-c2c(N)cc(Br)cc2Br)c(N)c1", "Potency": "inconclusive: 29.1 µM [cytotoxic, single point]"},
      {"compound": "CCOC(=O)N1CCN(C(=O)CC(=O)Nc2ccc3nc4n(c(=O)c3c2)CCCCC4)CC1", "activity change, negative = cytotoxic": "inactive: 3.33%"},
      {"compound": "CCC(CC)NC(=O)c1ccc2nc[nH]c2c1", "Potency": "inconclusive: 0.0291 µM [rising, full curve]"},
      {"compound": "Cc1ccc(CSc2nnc3ccc(-c4ccncc4)nn23)cc1", "activity change, negative = cytotoxic": "inactive: 5.71%"},
      {"compound": "O=S(=O)(c1ccccc1)n1nc(-c2ccco2)nc1NCc1ccccc1", "activity change, negative = cytotoxic": "inactive: -15.3%"},
      {"compound": "COc1ccc(C(CCNCc2ccc(N(C)C)cc2)c2ccccc2OC)cc1", "note": "(stereo not given)", "activity change, negative = cytotoxic": "inactive: -36.7%"},
      {"compound": "CC(C)OCCCNC(=O)c1ccc(CS(=O)(=O)Cc2ccccc2F)o1", "Potency": "inconclusive: 20.6 µM [cytotoxic, single point]"},
      {"compound": "CCOC(=O)c1sc2nc(C)[nH]c(=S)c2c1C", "Potency": "inconclusive: 18.4 µM [cytotoxic, single point]"},
      {"compound": "NCc1csc(Nc2ncccn2)n1", "activity change, negative = cytotoxic": "inactive: 0%"},
      {"compound": "COc1ccc(CCNc2ncnc3sc(C)cc23)cc1OC", "Potency": "inconclusive: 0.164 µM [cytotoxic, full curve, poor fit]"},
      {"compound": "COc1ccccc1-c1cc(C(=O)Nc2cccnc2)no1", "Potency": "active: 0.164 µM"},
      {"compound": "CN(C1=C(NC(=O)c2ccccc2)C(=O)c2ccccc2C1=O)C1CCS(=O)(=O)C1", "note": "(stereo not given)", "Potency": "inconclusive: 32.6 µM [cytotoxic, single point]"},
      {"compound": "O=C1C(=C(I)I)c2ccccc2-c2ccccc21", "Potency": "inconclusive: 23.1 µM [cytotoxic, single point]"},
      {"compound": "O=C(/C=C/c1cccc2ccccc12)c1ccncc1", "Potency": "active: 2.91 µM"},
      {"compound": "Cc1ccccc1OCC(=O)NNC(=O)Nc1ccc(Cl)cc1", "Potency": "active: 4.11 µM"},
      {"compound": "Cc1ccc(CNC(=O)[C@@H](NC(=O)C2CCN(C(=O)[C@@H](N)CC(C)C)CC2)C(C)C)cc1", "activity change, negative = cytotoxic": "inactive: 0%"},
      {"compound": "CC1CN(CCOc2ccc(Cl)cc2Cl)CC(C)O1", "note": "(stereo not given)", "Potency": "inconclusive: 16.4 µM [cytotoxic, single point]"},
      {"compound": "Fc1ccc(-n2cc(CNCCc3ccccn3)c(-c3ccccc3Cl)n2)cc1", "Potency": "inconclusive: 29.1 µM [cytotoxic, single point]"},
      {"compound": "CC(C)Cn1c(O)c(N=NC(=O)c2cccc(S(=O)(=O)N3CCCCC3)c2)c2ccccc21", "Potency": "inconclusive: 29.1 µM [cytotoxic, single point]"},
      {"compound": "Cc1cccn2c(CNCC(C)Oc3cccnc3)c(C(=O)N3CCOCC3)nc12", "note": "(stereo not given)", "activity change, negative = cytotoxic": "inconclusive: -32.5%"},
      {"compound": "CCCCCCCc1c(C)nc(N2CCOCC2)[nH]c1=O", "activity change, negative = cytotoxic": "inconclusive: -13.2%"},
      {"compound": "COC(=O)c1cc(OC)c(OCc2cc(C(=O)OC)oc2C)c(OC)c1", "Potency": "inconclusive: 29.1 µM [cytotoxic, single point]"},
      {"compound": "Cc1cccc(OCC(O)CN2C(C)(C)CC(O)CC2(C)C)c1", "note": "(stereo not given)", "activity change, negative = cytotoxic": "inactive: 7.05%"},
      {"compound": "Cc1nn(Cc2ccc(Cl)cc2)c(C)c1NC(=O)Cn1nc([N+](=O)[O-])c(Cl)c1C", "Potency": "inconclusive: 29.1 µM [cytotoxic, single point]"},
      {"compound": "O=C(CSc1ccc(-c2ccccc2)nn1)Nc1ccc2c(c1)OCCO2", "activity change, negative = cytotoxic": "inactive: 1.11%"},
      {"compound": "O=C(COC(=O)c1cccc(O)c1)Nc1ccc(OC(F)F)cc1", "activity change, negative = cytotoxic": "inactive: 2.93%"},
      {"compound": "CC[n+]1ccc(/C=C2\\Sc3ccccc3N2CCCS(=O)(=O)[O-])c2ccccc21", "activity change, negative = cytotoxic": "inactive: -2.77%"},
      {"compound": "COc1cccc(OCCSc2nc3ccccc3n2CC(=O)N2CCOCC2)c1", "activity change, negative = cytotoxic": "inactive: 0.149%"},
      {"compound": "Cc1ccn2c(=O)c(NC(=O)c3cccs3)c(C)nc2c1", "activity change, negative = cytotoxic": "inactive: 2.31%"},
      {"compound": "CCN(CC)S(=O)(=O)c1ccc(/C=C/C(=O)Nc2ccc(F)c(F)c2F)cc1", "Potency": "active: 4.61 µM"},
      {"compound": "Cn1c(=O)oc2cc(S(=O)(=O)N3CCCc4ccccc43)ccc21", "activity change, negative = cytotoxic": "inconclusive: -84.3%"},
      {"compound": "COc1ccc(-c2noc(CN(C(=O)c3ccc(C)cc3C)C(C)C)n2)cc1", "Potency": "inconclusive: 20.6 µM [cytotoxic, partial curve, poor fit]"},
      {"compound": "COc1cc(NC(C)=O)c2ncccc2c1[N+](=O)[O-]", "Potency": "inconclusive: 20.6 µM [rising, single point]"},
      {"compound": "O=C(CN1C2CCCC1CC(NC(=O)C1CCCCC1)C2)NCc1ccc(F)cc1", "note": "(stereo not given)", "activity change, negative = cytotoxic": "inactive: 0%"},
      {"compound": "Cc1cc(C)c2cc(CN(Cc3ccc4c(c3)OCO4)Cc3nnnn3Cc3ccco3)c(=O)[nH]c2c1", "Potency": "inconclusive: 23.1 µM [cytotoxic, single point]"},
      {"compound": "COc1ccc(C2CC(=O)Nc3c2c(C)nn3-c2nncc(-c3ccccc3)n2)c(OC)c1OC", "note": "(stereo not given)", "activity change, negative = cytotoxic": "inactive: 0.18%"},
      {"compound": "CCc1cc(CNC(=O)c2cccc(OC3CCN(S(C)(=O)=O)CC3)c2)on1", "Potency": "inconclusive: 16.4 µM [cytotoxic, single point]"},
      {"compound": "Cc1[nH]n(-c2ccccc2)c(=O)c1N=Nc1c(O)cc(S(=O)(=O)N(C)C)c2ccccc12", "Potency": "inconclusive: 6.51 µM [cytotoxic, partial curve, poor fit]"},
      {"compound": "Cc1ccnc(Sc2ccc([N+](=O)[O-])cc2[N+](=O)[O-])n1", "Potency": "inconclusive: 29.1 µM [cytotoxic, single point]"},
      {"compound": "CCOc1ccccc1C(=O)Nc1cccc(-c2nc3ccccc3s2)c1", "activity change, negative = cytotoxic": "inactive: -13.6%"},
      {"compound": "COc1ccc(S(=O)(=O)Nc2ccc3c(c2)C(=O)N([C@@H](C)CO)C[C@@H](C)[C@H](CN(C)S(=O)(=O)c2ccc(F)cc2)OCCCC[C@H](C)O3)cc1", "activity change, negative = cytotoxic": "inactive: -7.3%"},
      {"compound": "O=C(CSc1nnc2sc3ccccc3n12)NCc1ccc2c(c1)OCO2", "Potency": "inconclusive: 13 µM [rising, partial curve]"},
      {"compound": "O=C(Nc1ccccc1)Nc1ccccc1-n1ccnc1", "activity change, negative = cytotoxic": "inactive: -9.12%"},
      {"compound": "O=C(OCc1cc(=O)n2nc(C3CC3)sc2n1)c1cccc(NC(=O)c2ccccc2Cl)c1", "activity change, negative = cytotoxic": "inactive: 2.04%"},
      {"compound": "CCOc1ccc2c(ccc(/C=C/c3cc(C)c4cccnc4c3O)[n+]2C)c1", "Potency": "inconclusive: 3.66 µM [cytotoxic, full curve, poor fit]"},
      {"compound": "O=C(C1CC(=O)N(c2ccc(F)cc2)C1)N1CCCCC1", "note": "(stereo not given)", "Potency": "inconclusive: 3.66 µM [rising, full curve]"},
      {"compound": "O=C(CN1C(=O)c2cccc3cccc(c23)C1=O)N1CCCCC1", "Potency": "inconclusive: 2.06 µM [rising, partial curve, poor fit]"},
      {"compound": "COc1ccc(-c2nn(-c3ccccc3)cc2/C=C2/SC(=S)N(CCC(=O)O)C2=O)c(C)c1", "Potency": "inconclusive: 11.6 µM [cytotoxic, partial curve]"},
      {"compound": "CNCC(C)COc1ccccc1OCc1ccccc1", "note": "(stereo not given)", "activity change, negative = cytotoxic": "inactive: -0.574%"},
      {"compound": "Cc1nc2ccccc2c2oc(C(=O)Nc3ccc(C(C)C)cc3)cc12", "Potency": "inconclusive: 29.1 µM [cytotoxic, single point]"},
      {"compound": "CC(=O)Nc1ccc(N=c2cc([N+](=O)[O-])cc(Cl)n2O)cc1", "Potency": "inconclusive: 29.1 µM [cytotoxic, single point]"},
      {"compound": "CCC(=O)N1CCCC(C)(C(=O)Nc2ccc3oc(CC)nc3c2)C1", "note": "(stereo not given)", "activity change, negative = cytotoxic": "inactive: 0%"},
      {"compound": "CN1CC2(C)CN(C(c3ccccc3)c3ccccc3)CC(C)(C1)C2O", "note": "(stereo not given)", "activity change, negative = cytotoxic": "inconclusive: -11.6%"},
      {"compound": "N#CC1=C(S)N(c2ccccc2)C(c2ccc(-c3cccc(Cl)c3)o2)NC1=O", "note": "(stereo not given)", "activity change, negative = cytotoxic": "inactive: 4.09%"},
      {"compound": "COC(=O)[C@]12CCCCC=C1N(CCc1ccc(OC)c(OC)c1)C(=O)[C@H](CC(=O)NCCCCc1ccccc1)C2", "activity change, negative = cytotoxic": "inactive: -5.07%"},
      {"compound": "COc1cc(/C=C/C(=O)OCC(=O)N(C)Cc2ccccc2)ccc1O", "activity change, negative = cytotoxic": "inactive: 0%"},
      {"compound": "Cc1ccc(NN2C(=O)C=C(c3ccc(Cl)cc3)C2=O)cc1", "Potency": "inconclusive: 29.1 µM [cytotoxic, single point]"},
      {"compound": "N=c1ccn(Cc2cccc(Cl)c2)cc1", "Potency": "inconclusive: 25.9 µM [cytotoxic, single point]"},
      {"compound": "Cc1ccccc1NNC(=O)C(=O)NNc1ccccc1C", "Potency": "inconclusive: 0.058 µM [cytotoxic, full curve]"},
      {"compound": "COc1ccc(Br)c(C(=O)Nc2cccc(Cl)c2Cl)c1", "activity change, negative = cytotoxic": "inactive: 0%"},
      {"compound": "CCOC(=O)C1=CCN(S(C)(=O)=O)C1c1ccc(C)cc1", "note": "(stereo not given)", "activity change, negative = cytotoxic": "inactive: 0.0302%"},
      {"compound": "CC(=O)Nc1ccc2nc(-c3cccs3)[nH]c2c1", "activity change, negative = cytotoxic": "inactive: 2.01%"},
      {"compound": "CCN(CC)CCOC(=O)c1ccc(NC(=O)CCCN2C(=O)/C(=C/c3cccs3)SC2=S)cc1", "Potency": "inconclusive: 29.1 µM [cytotoxic, single point]"},
      {"compound": "O=c1[nH]c(N2CCN(c3ccccc3)CC2)nc2c1CCC2", "Potency": "inconclusive: 7.31 µM [rising, partial curve, poor fit]"},
      {"compound": "CC(=O)c1ccc(NC(=O)NC2CC(=O)N(c3ccc4c(c3)OCCO4)C2)cc1", "note": "(stereo not given)", "Potency": "inconclusive: 9.2 µM [rising, partial curve, poor fit]"},
      {"compound": "O=C1OC(Oc2ccccc2)(c2ccccc2)c2ccccc21", "note": "(stereo not given)", "Potency": "inconclusive: 29.1 µM [cytotoxic, single point]"},
      {"compound": "COc1ccc(-c2csc(-c3c(N)c(C(=O)c4ccc(OC)c(OC)c4)n4ccccc34)n2)cc1", "activity change, negative = cytotoxic": "inactive: -8.22%"},
      {"compound": "CC(C)(C)NC(=O)Nc1ccc2nccnc2c1", "Potency": "inconclusive: 29.1 µM [rising, single point]"},
      {"compound": "COC(=O)c1c(C)oc2ccc(N(C(=O)c3ccncc3)S(=O)(=O)c3ccc(Br)cc3)cc12", "activity change, negative = cytotoxic": "inactive: 0%"},
      {"compound": "CCOc1ccccc1OCCCC(=O)NNC(=O)c1nn(C)c(=O)c2ccccc12", "activity change, negative = cytotoxic": "inactive: 22.3%"},
      {"compound": "Cc1ccc([N+](=O)[O-])cc1S(=O)(=O)NCCc1c(C)[nH]c2ccccc12", "Potency": "inconclusive: 32.6 µM [cytotoxic, single point]"},
      {"compound": "C=CC[C@H](CC(=O)OC(C)(C)C)C(=O)OC[C@@H]1CCCN1C(=O)[C@@H](CC=C)CC(=O)N[C@H](CO)Cc1ccccc1", "activity change, negative = cytotoxic": "inactive: 20.5%"},
      {"compound": "Cc1cnc(C(=O)N2CCCC(C(=O)c3ccc(C(C)(C)C)cc3)C2)cn1", "note": "(stereo not given)", "activity change, negative = cytotoxic": "inactive: -4.89%"}
    ]}
  ]
}
